Measurements: the supplement of paper PMC10338343
± gives the standard deviation. This is a selection; strong and weak results do not stand in their true shares. Many entries were measured with a wide error.

Tested on: MILI (PIWIL2) piRISC loaded with Kctd7 piRNA (26 nt)
Test: pre-steady-state target cleavage rate (min^-1); MIWI and MILI are mouse PIWI proteins and EfPiwi is from a freshwater sponge; tags in brackets are library labels; higher = faster piRNA-guided slicing of the target
Settings: guide: Kctd7 piRNA 5'p-UGUUAAUCUCUCAGAGAAGGUGACAG; auxiliary factor: 500 nM mouse GTSF1
Outline: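 In Cleave-'n-Seq, a transcribed, DNA-blocked target RNA library (0.1 nM) was combined with 1 nM active affinity-purified piRISC bearing one synthetic guide, with or without 500 nM GTSF1 partner protein. Reactions ran in HEPES–potassium acetate buffer at 33 °C for 0–8 or 0–960 min. Uncleaved targets were sequenced and normalised to depth and to weakly complementary targets, three trials were pooled, and k3 was capped at 0.0001 min^-1. The pre-steady-state cleavage rate was obtained by fitting a burst-and-steady-state model.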

Sequence	pre-steady-state target cleavage rate
UAGUGACAGUGGAUCUCUGAGGGAUUAACA	0.00028 ± 0.011
UAGUGACAGUCCUUCUCUGGAGAUUAACA	0.00128 ± 0.0051
UAGUGACAGUGGAAGAGAGUGAGUUUAACA	0.00024 ± 0.017
UAGUGUGUCACCUUCCCUGAGAGAUUAACA	0.301 ± 0.056
UAGUGUGCCACCUUCUCUGAGAGAUUAACA	0.227 ± 0.023
UAGUGAGUCACCUUCUCUGUGAGAUAUUGA	0.00441 ± 0.0047
UAGUGUGUCAGCUUCUGUGAGAGAUUAACA	0.129 ± 0.013
UAGUGACAGUGGUUCUCUGUGUGAUUAACA	0.000243 ± 0.015
UAGUCUGAGUCCUUCUCUGAGAGAUAUUGA	0.00206 ± 0.0035
UAGUGACAGACCUUCUCAGAGAGAUUAUCA	0.00719 ± 0.0072
UAGUGACAGUGGAAGAGAGAGUGAAUAACA	0.000266 ± 0.019
UAGUGACUCACCUUCUUCUGAGAGAUUAACA	0.00384 ± 0.0041
UAGUGACAGUGGAAGAGUGAGUGAAUAACA	0.000241 ± 0.017
UAGUGACAGUGGAAGAGUGAGAGUUUUACA	0.000276 ± 0.024
UAGUCUGUCACCUUCUGAGAGAGAUAUUGA	0.00307 ± 0.0041
UAGUGACAGUGGAAGCCUGAGAGAUUAACA	0.000221 ± 0.015
UAGUCUGUCACGUUCUCUGACAGAUUAACA	0.00232 ± 0.0043
UAGUGACAGUGCUUCUCUGAGUGUUUAACA	0.000181 ± 0.018
UAGUGACAGAGCUUCUCUGAGAGAUUUUGA	0.000773 ± 0.0086
UAGUGACAGUGGAAGUCUGAGAGAUUAAACA	0.000742 ± 0.0078
UAGUGACAGUGGAUCUCUGAGAGUUUAUCA	0.000205 ± 0.029
UAGUCUGUCACCUUCUCUGAGAGAUUUUCA	0.12 ± 0.031
UAGUGACAGUGCUUCUCUGAGUCAUUAACA	0.000222 ± 0.017
UAGUGACAGUGGUUCUCUGAGAGAUUUACA	0.000741 ± 0.0067

Three entries picked at random from those above:
Sequence	pre-steady-state target cleavage rate
UAGUGACAGUGGAAGCCUGAGAGAUUAACA	0.000221 ± 0.015
UAGUGACAGUGGAUCUCUGAGGGAUUAACA	0.00028 ± 0.011
UAGUCUGUCACCUUCUGAGAGAGAUAUUGA	0.00307 ± 0.0041

Remaining list, next part.

Sequence	pre-steady-state target cleavage rate
UAGUGUGUCACCUUCUCUGAGAGAUGUAACA	0.159 ± 0.029
UAGUCUGUCACGUUCUCUGAGAGAUUUUGA	0.0018 ± 0.0043
UAGUGACAGUGGAAGACUGAGUCUUUAACA	0.000437 ± 0.018
UAGUGAGUCACGAACUCUGAGAGAUUAUGA	0.000673 ± 0.014
UAGUCUGUCAGCUUCUCUGAGUGAUUAACA	0.00157 ± 0.0028
UAGUGACUCACCUUCAGAGAGAGAUUUUGA	0.000692 ± 0.014
UAGUGUGUCACCUUGACUGAGAGAUAUUGA	0.000379 ± 0.022
UAGUGUGUCACCUUCUCUCUCAGAUUAACA	0.00177 ± 0.0068
UAGUGACAGUGCUUCUCUGACGAGAUUAACA	0.001 ± 0.005
UAGUGUGUCACCUUCUCUGAGAGAUUUACA	0.266 ± 0.047
UAGUGACAGUCCUUCUCUGAGAGAUAUACA	0.00219 ± 0.0035
UAGUGAGUCACCUUCUCUGAGAGAAUUACA	0.105 ± 0.048
UAGUGACAGACCAACUCUGAGAGAUUAAGA	0.00219 ± 0.0037
UAGUGACAGUCCUUCUCUGAGUCAUUAACA	0.000246 ± 0.01
UAGUGACAGUCCUUCUCUGACUCAUUAACA	0.000164 ± 0.018
UAGUGACAGUGGAAGUCUGAGAGCAUUAACA	0.000431 ± 0.0092
UAGUGACAGUGGUUCUCUGAGCAGAUUAACA	0.000254 ± 0.011
UAGUGAGUCACCUUCUCUGAGCAGAUUAACA	0.00439 ± 0.0066
UAGUCAGUCACCUUCUCUGAGAGAUUAACA	0.249 ± 0.016
UAGUGACAGUGGAUCUCUGAGAGAUUGACA	0.000133 ± 0.018
UAGUGACAGUGCUUCUCUGAGAGUUUUACA	0.00043 ± 0.011
UAGUCUGUCACCUUCUCUGAGAGAUUCACA	0.265 ± 0.059
UAGUGACAGACGAUCUCUGAGAGAUUAAGA	0.00216 ± 0.0038
UAGUGACAGUGGAAGUCUGAGAGAUAAACA	0.000125 ± 0.065

Sequence	pre-steady-state target cleavage rate
UAGUGACAGUGGAAGAGACAGACAUUAUCA	0.000334 ± 0.018
UAGUGACAGACCUUCUCUGACUCAUUAUGA	0.000111 ± 0.04
UAGUGACAGUGCUUCUCAUGAGAGAUUAACA	0.000569 ± 0.011
UAGUGACAGUCCUUGUCUGAGAGAAUAACA	0.000782 ± 0.016
UAGUGACAGUGGAAGUCUGAGUAGAUUAACA	0.000106 ± 0.036
UAGUGACAGUGGAACUCUGAGAGAUUAAAA	0.00011 ± 0.055
UAGUGACAGUGCUUCUCUGAAGAGAUUAACA	0.000261 ± 0.015
UAGUGUGUCACCUUCUCUGAGUCUUUAUGA	0.00245 ± 0.0069
UAGUGACAGUGGAAGUCUGAGAGAUUAAUA	0.000134 ± 0.037
UAGUGACAGAGGAUCUCUGAGAGAUUAAGA	0.000427 ± 0.011
UAGUGACAGUGGAACUCUGAGAGAUUAACU [g2:g16:cont:t1U]	0.000348 ± 0.02
UAGUGACAGUCCUUCUCUCGAGAGAUUAACA	0.000858 ± 0.011
UAGUCUGUCACCUUCAGAGAGAGAUUAACA	0.0227 ± 0.0099
UAGUGACAGUGGAAGAGACUGAGGAUUAACA	0.000108 ± 0.029
UAGUCUGUCACCAUCUCUGAGAGAUUUACA	0.124 ± 0.018
UAGUGACAGACCUUCUCUCAGAGAUAAACA	0.00202 ± 0.006
UAGUGACAGUCGUUCUCUGAGUGAUUAACA	0.00111 ± 0.0078
UAGUGACAGUCGUUCUCUGACAGAUUAACA	0.000144 ± 0.026
UAGUGACAGACCUUCUCUGACAGAUUAUCA	0.00159 ± 0.0058
UAGUGACAGACCUUCUCUGACUCAUUAAGA	0.00034 ± 0.026
UAGUGACAGACCUUCUCUGAGACAAUAACA	0.000777 ± 0.0074
UAGUGACAGUGGAAGAGAGACAGAUUAACA	0.000201 ± 0.027
UAGUGACACACCUUCUCUCUGAGAUUUUGA	0.000798 ± 0.0098
